Data reported in US20070219208A1, “Methods for Treating Cancer” (priority 2006, published 2007).
For at least one compound, name, drawing or mass did not settle the structure.

Tested on: NO2-/NO3- levels in MCF-7 cells
Assay: Nitrite and nitrate measurements by chemiluminescence (NO analyzer)
Assay type: cell-based
Conditions: statin treatment 40 h
Method: Briefly, following treatments, cells were washed three times with DPBS after aspirating the medium. To this, 1 ml of Hanks' balanced salt mixture containing 25 μM L-arginine was added and incubated for 30 min at 37° C. The medium was collected and centrifuged for 5 min at 5000 rpm, and 50 μl of the clear supernatant was used for nitrate and nitrite analysis. Each sample was analyzed in triplicate.

CCC(C)(C)C(=O)O[C@H]1C[C@@H](C)C=C2C=C[C@H](C)[C@H](CC[C@@H]3C[C@@H](O)CC(=O)O3)[C@H]21 [simvastatin]
NO2-/NO3- levels: induced
